No constants are given. Whether binding was seen depends on the method and setting. In cells and extracts the contact can be indirect.
Molecular target: protein disulfide isomerase (PDI), recombinant (UniProt P07237)
Experiment: pull-down; only the target purified

Amino acid sequences for entries named in this document (tags omitted). Residues count along the entry.
UniProt P07237, residues 18-508: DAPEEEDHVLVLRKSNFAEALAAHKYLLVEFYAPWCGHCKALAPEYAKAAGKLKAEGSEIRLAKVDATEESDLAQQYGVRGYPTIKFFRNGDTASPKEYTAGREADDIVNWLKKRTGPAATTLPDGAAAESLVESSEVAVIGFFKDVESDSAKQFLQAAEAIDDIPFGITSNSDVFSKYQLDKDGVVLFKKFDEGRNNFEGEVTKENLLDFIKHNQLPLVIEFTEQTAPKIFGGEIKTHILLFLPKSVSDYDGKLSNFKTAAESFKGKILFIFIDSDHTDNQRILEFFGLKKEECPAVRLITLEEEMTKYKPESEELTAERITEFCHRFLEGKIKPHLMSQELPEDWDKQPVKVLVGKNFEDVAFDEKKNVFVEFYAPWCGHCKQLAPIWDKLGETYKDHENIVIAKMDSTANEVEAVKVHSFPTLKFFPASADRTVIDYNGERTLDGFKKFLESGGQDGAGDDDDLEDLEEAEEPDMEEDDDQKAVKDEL

Question: How did the binding turn out when “PrP^Sc from brain homogenate of sporadic CJD (sCJD) patients (from UniProt P04156 23-230)” was run?
Answer: no binding

From PMC5270677
